PubChem BioAssay AID504791 – Drosophila RNAi Screening Center, 2011
The deposit covers about 23,000 reagents; shown is an unselected part of those that have a named target and a result. Of all reagents, 199 (0.86%) are marked active. 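Plate-scaled ratios behind the calls are not deposited; printed light signals are raw; many rows marked increased or decreased are still called inactive.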 Reagents against one gene are numbered here. Names joined by + are all predicted targets of the reagent.

Purpose: 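Genes whose knock-down strengthens or weakens small-RNA reporter silencing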 (primary screen)
Cells: Drosophila S2-derived reporter cells
Reagents: long dsRNA against Drosophila genes, about 150-250 ng dsRNA per well (siRNA assay); about 80-120 ng (miRNA assay)
Duration: about 5 days (siRNA assay); about 4 days (miRNA assay)
Treatment: copper sulfate induction of reporters: 25 µM (siRNA assay); 200 mM stated (miRNA assay), 1-2 days before reading
Measured: 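Per-well ratio of Renilla over firefly light, expressed relative to that plate's average ratio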
Scale: siRNA reporter hit score: higher = 3 marks a strong hit with raised ratio; -3 a strong hit with lowered ratio
Hit rule: 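a well was a first-pass pick when its plate-scaled ratio rose above 1.5 (siRNA assay) or 1.6 (miRNA assay), or dropped below 0.6; a gene counted only if two separate dsRNAs agreed on retest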

The opening 4 entries, ahead of the listing:
Target gene | reagent | siRNA reporter hit score | stable siRNA reporter change | miRNA reporter change | stable assay Renilla, run 1 (luminescence) | stable assay firefly, run 1 (luminescence) | Call
Tsp42Ep | 1 | – | – | – | 28199 | 1.94e6 | inactive
CG7329 | 1 | – | – | – | 6624 | 4.12e5 | inactive
CG17746 | 1 | – | – | – | 8975 | 4.91e5 | inactive
CG17746 | 2 | – | – | – | 4880 | 3.32e5 | inactive

The listing, from the first entry:
Target gene | reagent | siRNA reporter hit score | stable siRNA reporter change | miRNA reporter change | stable assay Renilla, run 1 (luminescence) | stable assay firefly, run 1 (luminescence) | Call
Tsp42Ep | 1 | – | – | – | 28199 | 1.94e6 | inactive
CG7329 | 1 | – | – | – | 6624 | 4.12e5 | inactive
CG17746 | 1 | – | – | – | 8975 | 4.91e5 | inactive
CG17746 | 2 | – | – | – | 4880 | 3.32e5 | inactive
Pdxk | 1 | – | – | – | 5855 | 5.48e5 | inactive
wnd | 1 | – | – | – | 4931 | 3.30e5 | inactive
wnd | 2 | – | – | – | 9714 | 5.52e5 | inactive
wnd | 3 | – | – | – | 9508 | 6.37e5 | inactive
CG32599 | 1 | – | – | – | 7823 | 4.41e5 | inactive
pncr004:X (retired record) | 1 | – | – | – | 3752 | 3.19e5 | inactive
saturn | 1 | – | – | – | 4938 | 3.54e5 | inactive
Cdc45 | 1 | – | reporter ratio lowered past the hit cutoff | – | 7932 | 7.52e5 | inactive
Cdc45 | 2 | – | – | – | 6180 | 4.26e5 | inactive
CG7102 | 1 | – | – | – | 22213 | 1.67e5 | inactive
CG7102 | 2 | – | – | – | 6703 | 4.54e5 | inactive
Cyp6a18 | 1 | – | – | – | 6632 | 4.18e5 | inactive
blot | 1 | – | – | – | 5751 | 5.82e5 | inactive
blot | 2 | – | – | – | 9491 | 2.68e5 | inactive
elav | 1 | – | – | – | 8820 | 4.14e5 | inactive
MBD-R2 | 1 | – | – | – | 12502 | 5.07e5 | inactive
CG15143 | 1 | – | – | – | 7935 | 3.68e5 | inactive
CG30432 | 1 | – | – | – | 5288 | 4.29e5 | inactive
CG6106 | 1 | – | – | – | 3671 | 2.67e5 | inactive
UGP | 1 | – | – | – | 6948 | 3.70e5 | inactive
poe | 1 | – | – | – | 1.75e5 | 1.80e5 | inactive
CG34214 | 1 | – | – | – | 13396 | 1.46e6 | inactive
Ork1 | 1 | – | – | – | 6571 | 4.89e5 | inactive
Dus3 | 1 | – | – | – | 6140 | 3.81e5 | inactive
CG18428 | 1 | – | – | – | 7854 | 4.54e5 | inactive
CG33474 | 1 | – | – | – | 5951 | 4.08e5 | inactive
Osi1 | 1 | – | – | – | 6231 | 3.65e5 | inactive
CG6330 | 1 | – | – | – | 7686 | 4.04e5 | inactive
MESK2 | 1 | – | – | – | 9263 | 3.82e5 | inactive
Nct | 1 | – | – | – | 11364 | 4.19e5 | inactive
S-Lap3 | 1 | – | – | – | 7524 | 5.11e5 | inactive
clu | 1 | – | – | – | 11442 | 3.91e5 | inactive
SmD2 | 1 | – | – | – | 11940 | 4.33e5 | inactive
CG31792 | 1 | – | – | – | 7758 | 5.30e5 | inactive
CG1703 | 1 | – | – | – | 7672 | 4.20e5 | inactive
CG6891 | 1 | – | reporter ratio lowered past the hit cutoff | – | 3924 | 3.85e5 | inactive
nonA-l | 1 | – | – | – | 7591 | 4.01e5 | inactive
His-Psi:CR31754 | 1 | – | – | – | 8523 | 6.99e5 | inactive
ltl | 1 | – | – | – | 6714 | 5.33e5 | inactive
ltl | 2 | – | – | – | 6610 | 4.12e5 | inactive
fj | 1 | – | – | – | 6104 | 3.26e5 | inactive
CG14212 | 1 | – | – | – | 5252 | 3.16e5 | inactive
CDK2AP1 | 1 | – | – | – | 6492 | 4.12e5 | inactive
CG15024 | 1 | – | – | – | 5831 | 4.46e5 | inactive
CG42264 | 1 | – | – | – | 5618 | 3.10e5 | inactive
CG42264 | 2 | – | – | – | 6695 | 3.26e5 | inactive
Slob (retired record) | 1 | – | – | – | 93042 | 1.87e5 | inactive
GABPI | 1 | – | – | – | 35520 | 5.52e5 | inactive
Raf | 1 | – | – | – | 4952 | 2.64e5 | inactive
Raf | 2 | – | – | – | 4500 | 2.51e5 | inactive
MED1 | 1 | – | – | – | 8553 | 3.60e5 | inactive
Mtch | 1 | – | – | – | 7678 | 2.98e5 | inactive
ppk31 | 1 | – | – | – | 4400 | 2.61e5 | inactive
CG10631 | 1 | – | – | – | 74286 | 1.74e6 | inactive
CG6441 | 1 | – | – | – | 9745 | 4.58e5 | inactive
Targ2 | 1 | – | – | – | 9010 | 6.97e5 | inactive
Pino | 1 | – | – | – | 5051 | 3.36e5 | inactive
Pino | 2 | – | – | – | 63758 | 1.61e5 | inactive
rdo | 1 | – | – | – | 5750 | 1.23e6 | inactive
CG5381 | 1 | – | – | – | 7962 | 4.42e5 | inactive
MED23 + CG3700 | 1 | – | – | – | 6443 | 3.71e5 | inactive
MED23 + CG3700 | 2 | – | – | – | 6828 | 8.57e5 | inactive
CG34171 | 1 | – | – | – | 6191 | 5.47e5 | inactive
CG17618 (retired record) + CG45049 | 1 | – | – | – | 6510 | 2.88e5 | inactive
CG17618 (retired record) + CG45049 | 2 | – | reporter ratio raised past the hit cutoff | – | 7512 | 2.67e5 | inactive
CG17618 (retired record) + CG45049 | 3 | – | – | – | 3576 | 2.44e5 | inactive
aus | 1 | – | – | – | 3691 | 3.59e5 | inactive
aus | 2 | – | reporter ratio raised past the hit cutoff | – | 1484 | 63163 | inactive
aus | 3 | – | – | – | 10121 | 3.72e5 | inactive
Ars2 | 1 | -3 | reporter ratio raised past the hit cutoff | reporter ratio raised past the hit cutoff | 22390 | 1.26e6 | active
Strump | 1 | – | – | – | 7685 | 2.86e5 | inactive
mgl | 1 | – | – | – | 4703 | 3.61e5 | inactive
mgl | 2 | – | – | – | 6655 | 4.49e5 | inactive
mgl | 3 | – | – | – | 5023 | 4.14e5 | inactive
mgl | 4 | – | – | – | 4324 | 3.44e5 | inactive
CG5767 | 1 | – | – | – | 5583 | 3.19e5 | inactive
rtet | 1 | – | – | – | 8060 | 3.01e5 | inactive
lz | 1 | – | – | – | 5510 | 3.64e5 | inactive
lz | 2 | – | – | – | 8418 | 4.52e5 | inactive
